± gives the standard deviation. This is a selection; strong and weak results do not stand in their true shares. Many entries were measured with a wide error. The list shows a part of the results.
Assays:
[1] = test system: MILI (PIWIL2) piRISC loaded with L1MC piRNA (26 nt); assay: pre-steady-state target cleavage rate (min^-1); higher = faster piRNA-guided slicing of the target; conditions: guide: L1MC piRNA 5'p-UAACUAAAUACUAUGCAAGCUGUAGG;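 note: 1 nM active piRISC with 0.1 nM target library at 33 °C single turnover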
Summary of the method: (§1)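 A transcribed, DNA-blocked target RNA library […] was incubated at 33 °C for 0–8 or 0–960 min with 1 nM active affinity-purified piRISC carrying one synthetic guide, in HEPES–potassium acetate buffer with or without 500 nM GTSF1 partner protein. Uncleaved targets were then sequenced and normalised to depth and to weakly complementary targets. Data from three trials were pooled, with k3 capped at 0.0001 min^-1, and a burst-and-steady-state fit yielded the pre-steady-state cleavage rate.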

[2] = test system: EfPiwi piRISC loaded with L1MC piRNA (26 nt); assay: pre-steady-state target cleavage rate (min^-1); guide: L1MC piRNA 5'p-UAACUAAAUACUAUGCAAGCUGUAGG; MIWI and MILI are mouse PIWI proteins and EfPiwi is from a freshwater sponge; tags in brackets are library labels; higher = faster piRNA-guided slicing of the target
Summary of the method: as §1

[3] = auxiliary factor: 500 nM mouse GTSF1
[4] = auxiliary factor: none (no GTSF1)
[5] = auxiliary factor: 500 nM Ephydatia muelleri Gtsf1
[6] = auxiliary factor: none (no Gtsf1)

Row | Sequence | pre-steady-state target cleavage rate [1, 3] | pre-steady-state target cleavage rate [1, 4] | pre-steady-state target cleavage rate [2, 5] | pre-steady-state target cleavage rate [2, 6]
1 | UCCUCCUUCAGCUUGGAUAGUAUUUAGUUA | 0.242 ± 0.015 | 0.0086 ± 0.0023 | 0.0562 ± 0.013 | –
2 | UCCUGGAUGUCGUUGCAUAGUAUUUUCAAA [g6:g18:cont:t1A] | 0.00256 ± 0.0059 | 0.000721 ± 0.0081 | 0.00141 ± 0.006 | –
3 | UCCUGGAUGAGCUUGCAUAGAAUUUAGUAA | 0.0264 ± 0.011 | 0.00131 ± 0.0041 | 0.00272 ± 0.0027 | –
4 | UCCUCCUACAGCUUGCAUAGUAUUUUGUUA | 0.177 ± 0.023 | 0.0036 ± 0.0022 | 0.00791 ± 0.0033 | –
5 | UCCUGGAUCAGCAUGCAAAGUAUUUAGUUA | 0.098 ± 0.011 | 0.0074 ± 0.0018 | 0.0037 ± 0.0031 | –
6 | UCCUGGAUGUCCUUGCAUAGUAUUUAGGUA | 0.0702 ± 0.017 | 0.00143 ± 0.0049 | 0.00431 ± 0.0026 | –
7 | UCCUCCUACAGCUUGCAUAGUAUUUACGUUA | 0.265 ± 0.029 | 0.00757 ± 0.0026 | 0.00783 ± 0.0029 | –
8 | UCCUGGAUGUCGAUGCAUAGUAUUUAGCUUA | 0.0496 ± 0.014 | 0.00233 ± 0.0031 | 0.00156 ± 0.0047 | –
9 | UCCUCCUACAGGUUGGAUAGUAUUUAGUUA | 0.205 ± 0.012 | 0.00699 ± 0.0018 | 0.0118 ± 0.0028 | –
10 | UCCUGGAUGAGCUUGCUUAGUAUUUAGAUA | 0.128 ± 0.02 | 0.00238 ± 0.0031 | 0.00382 ± 0.0029 | –
11 | UCCUGGAUGUCCUUGCAUAGUAUUUAGUAA | 0.117 ± 0.019 | 0.00376 ± 0.0019 | 0.00321 ± 0.0025 | –
12 | UCCUCCUACACCUUGCAUAGUAUUUAGUAA | 0.226 ± 0.037 | 0.0033 ± 0.0026 | 0.00625 ± 0.003 | –
13 | UCCUGCAACAGCUUGCAUAGUAUUAAGUUA | 0.344 ± 0.039 | 0.00432 ± 0.0031 | 0.00881 ± 0.0022 | –
14 | UCCUGGAUGAGCUUGCAUAGGAUUUAGUUA | 0.00241 ± 0.0044 | 0.00137 ± 0.0046 | 0.00113 ± 0.0033 | –
15 | UCCUGGAUGUCCUUGCAUAGUGUUUAGUUA | 0.0572 ± 0.012 | 0.00445 ± 0.0025 | 0.00951 ± 0.0035 | –
16 | UCCUGCUACAGUUUGCAUAGUAUUUAGUUA | 0.296 ± 0.015 | 0.0106 ± 0.0023 | 0.0365 ± 0.011 | –
17 | UCCUGGAUGAGCUGGCAUAGUAUUUAGUUA | 0.185 ± 0.016 | 0.0101 ± 0.0034 | 0.0103 ± 0.0035 | –
18 | UCCUGCUACAGCUUGCAUAGAAUUAAGUUA | 0.048 ± 0.012 | 0.00164 ± 0.0033 | – | 0.000557 ± 0.011
19 | UCCUGGUACAGCUUGCAAAGUAUUUACAAA | 0.0115 ± 0.0055 | 0.0009 ± 0.0078 | 0.00196 ± 0.0029 | –
20 | UCCUGGUACAGCUAUGCAUAGUAUUUAGUUA | 0.259 ± 0.016 | 0.0112 ± 0.0038 | 0.0292 ± 0.0094 | –
21 | UCCUGGAUGUCGAACGAAUAGUAUUUAGUUA | 0.000589 ± 0.0077 | < 0.0001 | 0.00022 ± 0.011 | –
22 | UCCUGCUUCAGCUUGCAUAGUAUAUAGUUA | 0.277 ± 0.025 | 0.00438 ± 0.002 | 0.00887 ± 0.0035 | –
23 | UCCUGGAUCAGCUUGGAUAGUAUUUAGUAA | 0.166 ± 0.019 | 0.00324 ± 0.0026 | 0.00463 ± 0.0023 | –

Row | Sequence | pre-steady-state target cleavage rate [1, 3] | pre-steady-state target cleavage rate [1, 4] | pre-steady-state target cleavage rate [2, 5] | pre-steady-state target cleavage rate [2, 6]
24 | UCCUGGAUGUCCUUGCAUAGUAUUUAGUGA | 0.0966 ± 0.018 | 0.00382 ± 0.0024 | 0.00229 ± 0.0029 | –
25 | UCCUGGUACAGCUUGCAUAGUAUUUAGUUA [g2:g24:cont:t1A] | 0.277 ± 0.018 | 0.0215 ± 0.0056 | 0.0865 ± 0.024 | –
26 | UCCUGGUACAGCUUUGCAUAGUAUUUAGUUA | 0.185 ± 0.018 | 0.0164 ± 0.0048 | 0.00974 ± 0.0035 | –
27 | UCCUGGAUGUGCUUGCAUAGUAUUUAUUUA | 0.0305 ± 0.011 | 0.00177 ± 0.0045 | 0.00253 ± 0.0041 | –
28 | UCCUGCUACAGCUUGCAUAGCAUUUAGUUA | 0.141 ± 0.022 | 0.00237 ± 0.0028 | – | 0.000658 ± 0.0073
29 | UCCUGGUACAGCAUGCAUAGAAUUUAGUUA | 0.197 ± 0.07 | 0.0019 ± 0.0057 | 0.000831 ± 0.015 | –
30 | UCCUCCAACAGCUUGCAUAGUUUUUAGUUA | 0.0522 ± 0.0087 | 0.00502 ± 0.0021 | 0.0119 ± 0.0041 | –
31 | UCCUGCUACAGCUAGCAUAGUAUUAAGUUA | 0.3 ± 0.032 | 0.00271 ± 0.0036 | 0.00662 ± 0.0026 | –
32 | UCCUGGUACAGGUAGCAUAGUAUUUAGUUA | 0.21 ± 0.021 | 0.00976 ± 0.0036 | 0.00853 ± 0.0036 | –
33 | UCCUGGAUCAGCUUGCUUAGUAUUUUGUUA | 0.16 ± 0.015 | 0.00583 ± 0.0022 | 0.00309 ± 0.0034 | –
34 | UCCUCCUACAGCUUGCAUAGUUAUUUAGUUA | 0.0152 ± 0.0067 | 0.00383 ± 0.0024 | 0.00556 ± 0.0031 | –
35 | UCCUGGAUGAGCUUGCAUAGUAUUUCAGUUA | 0.207 ± 0.048 | 0.00415 ± 0.0028 | 0.00264 ± 0.0023 | –
36 | UCCUGCUACUGCUUGCUUAGUAUUUAGUUA | 0.202 ± 0.022 | 0.00589 ± 0.002 | 0.0076 ± 0.0022 | –
37 | UCCUGGUAGAGCUUGCAUAGUAUUUAGAAA | 0.128 ± 0.028 | 0.00163 ± 0.0042 | 0.00392 ± 0.0022 | –
38 | UCCUGGAUGAGCUUGCAAAGUAUUUAGUUA | 0.0794 ± 0.011 | 0.00483 ± 0.0028 | – | 0.00139 ± 0.0062
39 | UCCUGGAUCAAGCUUGCAUAGUAUUUAGUUA | 0.237 ± 0.018 | 0.0103 ± 0.0028 | 0.0542 ± 0.012 | –
40 | UCCUGCUACAGCUUGCAUAGUAUUUACUUA | 0.171 ± 0.032 | 0.00233 ± 0.0038 | 0.00356 ± 0.0027 | –
41 | UCCUCCUAGAGCUUGCAUAGUAUUUAGAUA | 0.123 ± 0.025 | 0.00123 ± 0.0051 | 0.0043 ± 0.0018 | –
42 | UCCUCCUACAGAUUGCAUAGUAUUUAGUUA | 0.236 ± 0.014 | 0.00814 ± 0.0018 | 0.0555 ± 0.014 | –
43 | UCCUGGAUGUCGAUGGAUAGUAUUUAGUAA | 0.00684 ± 0.0036 | 0.000511 ± 0.0084 | 0.000303 ± 0.0088 | –
44 | UCCUGGAUGAGCUUGCAUAGUAUAUACUUA | 0.00262 ± 0.0058 | 0.00092 ± 0.0076 | 0.000509 ± 0.01 | –
45 | UCCUCCUACAGCUUGCUUAGUAAUUAGUUA | 0.24 ± 0.015 | 0.00424 ± 0.0021 | 0.0113 ± 0.0049 | –
46 | UCCUCCUACAGCUAGCUUAGUAUUUAGUUA | 0.206 ± 0.017 | 0.00491 ± 0.0019 | 0.00997 ± 0.0038 | –

Two records picked at random from those above:
Row | Sequence | pre-steady-state target cleavage rate [1, 3] | pre-steady-state target cleavage rate [1, 4] | pre-steady-state target cleavage rate [2, 5] | pre-steady-state target cleavage rate [2, 6]
40 | UCCUGCUACAGCUUGCAUAGUAUUUACUUA | 0.171 ± 0.032 | 0.00233 ± 0.0038 | 0.00356 ± 0.0027 | –
43 | UCCUGGAUGUCGAUGGAUAGUAUUUAGUAA | 0.00684 ± 0.0036 | 0.000511 ± 0.0084 | 0.000303 ± 0.0088 | –

Reference: the supplement of paper PMC10338343
